Results taken from the supplement of paper PMC10849652.
This is one part of the list.

Chains of the proteins cited; added tags and fusions are not shown. Lines headed by an entry give the natural chain unless they say otherwise; changes in a name come on top.
UniProt P30047: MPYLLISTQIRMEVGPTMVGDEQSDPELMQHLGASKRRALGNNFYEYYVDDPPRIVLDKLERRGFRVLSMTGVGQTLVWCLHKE
UniProt Q96AE4: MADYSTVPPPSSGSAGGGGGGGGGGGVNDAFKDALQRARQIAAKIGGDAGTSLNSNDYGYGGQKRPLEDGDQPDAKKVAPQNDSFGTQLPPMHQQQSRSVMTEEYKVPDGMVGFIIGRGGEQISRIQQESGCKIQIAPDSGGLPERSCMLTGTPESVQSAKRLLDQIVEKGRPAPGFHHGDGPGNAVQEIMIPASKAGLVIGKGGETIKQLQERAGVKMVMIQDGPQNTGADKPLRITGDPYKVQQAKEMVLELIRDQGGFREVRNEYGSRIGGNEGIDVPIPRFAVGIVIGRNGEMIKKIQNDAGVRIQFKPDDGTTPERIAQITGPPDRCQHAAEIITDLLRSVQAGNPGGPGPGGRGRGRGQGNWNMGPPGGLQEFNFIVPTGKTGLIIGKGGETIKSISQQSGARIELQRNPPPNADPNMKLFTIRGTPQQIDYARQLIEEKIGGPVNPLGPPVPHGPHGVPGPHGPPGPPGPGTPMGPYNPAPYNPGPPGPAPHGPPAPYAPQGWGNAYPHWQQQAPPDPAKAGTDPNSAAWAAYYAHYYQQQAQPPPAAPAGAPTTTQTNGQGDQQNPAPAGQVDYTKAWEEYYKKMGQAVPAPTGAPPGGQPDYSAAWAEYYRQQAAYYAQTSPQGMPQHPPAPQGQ
UniProt Q8IVP5: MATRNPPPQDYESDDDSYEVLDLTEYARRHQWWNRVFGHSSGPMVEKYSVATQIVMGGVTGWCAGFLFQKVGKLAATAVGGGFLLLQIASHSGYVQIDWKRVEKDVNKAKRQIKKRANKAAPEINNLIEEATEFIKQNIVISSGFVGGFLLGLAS
UniProt P54803: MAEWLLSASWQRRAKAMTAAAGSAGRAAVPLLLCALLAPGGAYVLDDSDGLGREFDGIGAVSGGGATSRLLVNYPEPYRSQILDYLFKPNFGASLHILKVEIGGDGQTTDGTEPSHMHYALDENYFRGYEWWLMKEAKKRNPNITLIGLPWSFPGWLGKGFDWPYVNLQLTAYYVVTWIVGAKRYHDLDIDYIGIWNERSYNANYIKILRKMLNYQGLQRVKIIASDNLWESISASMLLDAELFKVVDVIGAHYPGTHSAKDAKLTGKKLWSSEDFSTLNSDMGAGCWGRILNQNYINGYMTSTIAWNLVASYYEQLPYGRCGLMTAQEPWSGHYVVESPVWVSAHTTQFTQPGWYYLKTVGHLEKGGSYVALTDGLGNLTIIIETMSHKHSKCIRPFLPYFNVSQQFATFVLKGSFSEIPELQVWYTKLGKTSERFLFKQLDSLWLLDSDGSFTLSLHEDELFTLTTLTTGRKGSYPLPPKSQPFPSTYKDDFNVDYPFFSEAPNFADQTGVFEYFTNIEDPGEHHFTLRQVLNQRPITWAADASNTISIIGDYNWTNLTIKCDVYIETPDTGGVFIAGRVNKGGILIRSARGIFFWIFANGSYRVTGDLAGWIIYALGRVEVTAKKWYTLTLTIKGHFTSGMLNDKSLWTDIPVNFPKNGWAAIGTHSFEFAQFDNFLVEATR
UniProt P57678: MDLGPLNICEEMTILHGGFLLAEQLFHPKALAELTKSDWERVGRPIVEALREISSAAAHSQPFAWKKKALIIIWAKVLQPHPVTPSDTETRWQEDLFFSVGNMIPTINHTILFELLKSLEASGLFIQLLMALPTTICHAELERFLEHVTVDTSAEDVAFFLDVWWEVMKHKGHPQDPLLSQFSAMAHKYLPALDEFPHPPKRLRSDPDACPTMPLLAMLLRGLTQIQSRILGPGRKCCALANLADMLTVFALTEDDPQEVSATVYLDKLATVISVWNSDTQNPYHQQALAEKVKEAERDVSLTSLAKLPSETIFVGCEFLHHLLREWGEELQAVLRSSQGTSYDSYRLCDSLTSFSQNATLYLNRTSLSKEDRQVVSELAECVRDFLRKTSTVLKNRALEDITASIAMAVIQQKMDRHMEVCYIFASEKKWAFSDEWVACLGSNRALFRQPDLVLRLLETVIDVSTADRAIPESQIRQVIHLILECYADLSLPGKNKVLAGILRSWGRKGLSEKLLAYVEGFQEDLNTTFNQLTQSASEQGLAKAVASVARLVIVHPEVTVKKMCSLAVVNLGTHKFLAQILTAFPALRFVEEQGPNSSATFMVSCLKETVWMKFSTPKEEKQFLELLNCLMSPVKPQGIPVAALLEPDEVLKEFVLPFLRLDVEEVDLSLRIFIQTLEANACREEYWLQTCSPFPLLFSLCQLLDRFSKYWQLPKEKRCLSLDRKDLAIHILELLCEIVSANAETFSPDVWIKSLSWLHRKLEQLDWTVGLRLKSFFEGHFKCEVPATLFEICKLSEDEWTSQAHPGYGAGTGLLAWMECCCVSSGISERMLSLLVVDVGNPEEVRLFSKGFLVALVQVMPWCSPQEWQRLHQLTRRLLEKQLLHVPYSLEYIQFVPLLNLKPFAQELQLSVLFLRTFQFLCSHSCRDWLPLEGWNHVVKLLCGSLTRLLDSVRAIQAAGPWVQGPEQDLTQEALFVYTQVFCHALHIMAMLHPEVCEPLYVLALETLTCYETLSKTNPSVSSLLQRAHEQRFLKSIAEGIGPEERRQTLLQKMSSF
UniProt Q14697: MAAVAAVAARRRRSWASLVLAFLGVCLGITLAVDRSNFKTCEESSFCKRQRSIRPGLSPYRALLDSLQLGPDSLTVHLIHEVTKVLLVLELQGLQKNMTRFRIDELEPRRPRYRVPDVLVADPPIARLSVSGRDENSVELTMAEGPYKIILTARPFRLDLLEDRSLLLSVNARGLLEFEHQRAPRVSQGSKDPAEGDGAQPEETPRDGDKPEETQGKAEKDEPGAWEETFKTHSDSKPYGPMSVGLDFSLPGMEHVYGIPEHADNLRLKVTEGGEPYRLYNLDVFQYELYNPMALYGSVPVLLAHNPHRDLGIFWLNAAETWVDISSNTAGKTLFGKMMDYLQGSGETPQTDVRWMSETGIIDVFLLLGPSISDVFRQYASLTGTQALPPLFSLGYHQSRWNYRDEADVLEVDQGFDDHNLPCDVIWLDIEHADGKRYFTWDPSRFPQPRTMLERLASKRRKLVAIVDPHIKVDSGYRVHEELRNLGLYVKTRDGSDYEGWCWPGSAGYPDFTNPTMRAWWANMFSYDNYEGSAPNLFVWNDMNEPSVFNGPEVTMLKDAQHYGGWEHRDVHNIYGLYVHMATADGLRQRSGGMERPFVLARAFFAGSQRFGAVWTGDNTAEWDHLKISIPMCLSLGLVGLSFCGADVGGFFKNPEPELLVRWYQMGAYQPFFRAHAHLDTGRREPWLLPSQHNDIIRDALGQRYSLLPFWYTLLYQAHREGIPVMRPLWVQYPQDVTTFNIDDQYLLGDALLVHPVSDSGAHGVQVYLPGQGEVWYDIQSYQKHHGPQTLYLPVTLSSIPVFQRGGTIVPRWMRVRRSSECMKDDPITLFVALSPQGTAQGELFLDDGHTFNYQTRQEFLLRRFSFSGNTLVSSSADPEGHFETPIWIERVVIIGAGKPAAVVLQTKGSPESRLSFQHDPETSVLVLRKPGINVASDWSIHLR
UniProt P22083, whole entry, looked up: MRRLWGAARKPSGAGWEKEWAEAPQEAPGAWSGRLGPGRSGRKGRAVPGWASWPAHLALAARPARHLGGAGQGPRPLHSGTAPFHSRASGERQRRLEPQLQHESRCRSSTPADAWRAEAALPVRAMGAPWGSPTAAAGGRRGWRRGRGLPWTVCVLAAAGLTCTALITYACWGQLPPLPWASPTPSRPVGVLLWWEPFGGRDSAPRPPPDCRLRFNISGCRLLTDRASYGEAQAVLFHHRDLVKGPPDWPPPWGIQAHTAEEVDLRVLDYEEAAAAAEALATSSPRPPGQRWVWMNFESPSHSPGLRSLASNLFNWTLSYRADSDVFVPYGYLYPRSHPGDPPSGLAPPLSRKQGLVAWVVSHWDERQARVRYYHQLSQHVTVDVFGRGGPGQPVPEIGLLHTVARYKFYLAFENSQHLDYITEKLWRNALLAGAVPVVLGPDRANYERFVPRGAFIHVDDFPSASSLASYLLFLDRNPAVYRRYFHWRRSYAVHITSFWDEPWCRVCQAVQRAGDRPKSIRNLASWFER
UniProt O95166, whole entry, looked up: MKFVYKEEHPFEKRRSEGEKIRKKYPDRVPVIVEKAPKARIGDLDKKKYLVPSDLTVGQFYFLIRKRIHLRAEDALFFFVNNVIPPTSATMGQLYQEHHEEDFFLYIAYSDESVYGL
UniProt Q969S9: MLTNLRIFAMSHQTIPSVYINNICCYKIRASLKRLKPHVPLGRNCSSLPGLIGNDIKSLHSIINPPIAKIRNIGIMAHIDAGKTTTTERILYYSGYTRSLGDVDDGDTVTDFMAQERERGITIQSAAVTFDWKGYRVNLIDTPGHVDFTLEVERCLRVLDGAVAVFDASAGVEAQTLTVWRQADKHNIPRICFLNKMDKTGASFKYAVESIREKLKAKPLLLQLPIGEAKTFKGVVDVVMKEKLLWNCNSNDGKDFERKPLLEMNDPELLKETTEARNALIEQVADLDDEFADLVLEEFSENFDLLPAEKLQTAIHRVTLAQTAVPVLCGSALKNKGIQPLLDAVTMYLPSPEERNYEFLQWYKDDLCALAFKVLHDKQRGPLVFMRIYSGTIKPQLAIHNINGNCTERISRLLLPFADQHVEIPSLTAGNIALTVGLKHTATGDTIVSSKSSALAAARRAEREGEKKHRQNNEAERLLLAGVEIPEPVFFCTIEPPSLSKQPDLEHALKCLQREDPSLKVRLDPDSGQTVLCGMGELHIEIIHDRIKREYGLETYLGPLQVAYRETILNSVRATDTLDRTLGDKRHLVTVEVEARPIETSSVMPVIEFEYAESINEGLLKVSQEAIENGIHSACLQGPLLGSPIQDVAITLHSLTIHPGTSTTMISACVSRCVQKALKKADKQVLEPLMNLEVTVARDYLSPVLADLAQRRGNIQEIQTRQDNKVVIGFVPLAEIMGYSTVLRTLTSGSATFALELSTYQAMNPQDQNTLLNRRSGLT
UniProt Q8NCL4: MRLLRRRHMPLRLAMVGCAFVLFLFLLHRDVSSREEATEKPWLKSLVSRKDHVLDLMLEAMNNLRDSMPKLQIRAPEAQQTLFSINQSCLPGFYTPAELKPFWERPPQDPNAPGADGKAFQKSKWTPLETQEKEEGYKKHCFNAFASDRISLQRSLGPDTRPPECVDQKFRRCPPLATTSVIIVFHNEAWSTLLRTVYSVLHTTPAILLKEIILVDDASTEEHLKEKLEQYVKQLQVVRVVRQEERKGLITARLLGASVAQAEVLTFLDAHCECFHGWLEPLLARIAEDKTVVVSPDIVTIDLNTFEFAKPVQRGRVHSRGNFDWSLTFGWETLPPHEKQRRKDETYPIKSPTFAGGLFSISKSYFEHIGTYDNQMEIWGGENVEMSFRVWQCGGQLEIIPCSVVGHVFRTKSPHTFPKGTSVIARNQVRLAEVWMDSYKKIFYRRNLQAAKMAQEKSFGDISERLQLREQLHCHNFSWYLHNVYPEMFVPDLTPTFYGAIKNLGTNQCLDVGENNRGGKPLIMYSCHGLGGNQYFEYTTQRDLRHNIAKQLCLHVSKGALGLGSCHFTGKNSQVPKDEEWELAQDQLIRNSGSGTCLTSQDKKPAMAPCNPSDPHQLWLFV
UniProt O43716: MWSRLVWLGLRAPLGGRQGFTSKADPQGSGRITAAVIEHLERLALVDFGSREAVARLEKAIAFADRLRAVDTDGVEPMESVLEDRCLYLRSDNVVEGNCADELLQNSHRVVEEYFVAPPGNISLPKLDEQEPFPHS
UniProt Q8N9F7: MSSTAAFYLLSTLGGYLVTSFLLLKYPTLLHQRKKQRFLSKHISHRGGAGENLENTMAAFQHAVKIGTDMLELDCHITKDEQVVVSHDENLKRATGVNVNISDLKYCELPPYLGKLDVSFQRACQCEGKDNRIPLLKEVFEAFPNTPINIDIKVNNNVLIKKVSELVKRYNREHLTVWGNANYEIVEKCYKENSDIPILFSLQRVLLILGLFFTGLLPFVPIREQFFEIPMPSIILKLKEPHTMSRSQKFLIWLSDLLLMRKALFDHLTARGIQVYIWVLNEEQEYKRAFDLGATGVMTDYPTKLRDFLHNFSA
UniProt Q06547, whole entry, looked up: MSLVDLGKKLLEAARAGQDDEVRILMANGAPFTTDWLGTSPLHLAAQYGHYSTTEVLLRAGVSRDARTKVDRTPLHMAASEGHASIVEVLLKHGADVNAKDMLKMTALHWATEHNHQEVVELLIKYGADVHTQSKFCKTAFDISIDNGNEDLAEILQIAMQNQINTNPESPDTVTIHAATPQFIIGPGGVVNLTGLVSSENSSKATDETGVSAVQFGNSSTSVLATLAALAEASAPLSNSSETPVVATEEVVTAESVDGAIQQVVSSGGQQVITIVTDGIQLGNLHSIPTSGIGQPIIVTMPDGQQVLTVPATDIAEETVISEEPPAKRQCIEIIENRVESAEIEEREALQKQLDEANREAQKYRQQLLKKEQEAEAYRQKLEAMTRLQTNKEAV

Experiments:
Test in all cases: log2 fold change, soluble protein after heating vs DMSO (PISA); higher = thermal stabilisation; K562 lysate, 10 uM; active = over 0.2 and 3.5 SD of the protein, either way, in both replicates (recomputed)
[1] = compound: Cc1cn(-c2cc(NC(=O)c3ccc(C)c(Nc4nccc(-c5cccnc5)n4)c3)cc(C(F)(F)F)c2)cn1 [nilotinib]
In short: (§1)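 To prepare the extract, K562 pellets were dounce-homogenised in PBS pH 7.4 with 1 mM MgCl2, giving crude material at 1 mg/mL protein. This was treated with 10 μM compound for 30 min, then heated in aliquots for 3 min over 48°C-58°C before pooling and addition of NP-40 to 0.5% at 4°C. Centrifugation at 21,000xg for 90 min left soluble protein in the supernatant, which TMTpro 16plex LC-MS/MS quantified with equalised channel sums. Results are log-two fold changes in thermal stability compared with solvent controls, from duplicates.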

[2] = compound: Cc1nc(Nc2n[nH]c3c2CN(C(=O)N[C@H](CN(C)C)c2ccccc2)C3(C)C)c2sccc2n1
In short: as §1

[3] = compound: Cc1nc(Nc2ncc(C(=O)Nc3c(C)cccc3Cl)s2)cc(N2CCN(CCO)CC2)n1 [dasatinib]
In short: as §1

[4] = compound: Cc1ncc(-c2ccnc(Nc3ccc(S(C)(=O)=O)cc3)n2)n1C(C)C
In short: as §1

[5] = compound: Cn1cc(-c2ccc3c(c2)CCN3C(=O)Cc2cccc(C(F)(F)F)c2)c2c(N)ncnc21
In short: as §1

[6] = compound: Cn1cc(CNCC2CCN(c3ncc(C(=O)NO)cn3)CC2)c2ccccc21 [quisinostat]
In short: as §1

[7] = compound: Cn1cncc1[C@@](N)(c1ccc(Cl)cc1)c1ccc2c(c1)c(-c1cccc(Cl)c1)cc(=O)n2C [tipifarnib]
In short: as §1

[8] = compound: NC(=O)Nc1cc(-c2cccc(F)c2)sc1C(=O)N[C@H]1CCCNC1
In short: as §1

[9] = compound: NC(=O)c1cnc(N[C@@H]2CCCC[C@@H]2N)nc1Nc1cccc(-n2nccn2)c1
In short: as §1

[10] = compound: NC1(c2ccc(-c3nc4ccn5c(=O)[nH]nc5c4cc3-c3ccccc3)cc2)CCC1
In short: as §1

Measured: log2 fold change

GCHFR (UniProt P30047)
inactive: [1] -0.052 | [2] 0.007 | [3] -0.018 | [4] 0.076 | [5] 0.035 | [6] -0.171 | [7] 0.008 | [8] -0.007 | [9] 0.07 | [10] -0.035

FUBP1 (UniProt Q96AE4)
inactive: [1] -0.06 | [2] -0.126 | [3] 0.103 | [4] 0.022 | [5] -0.024 | [6] 0.026 | [7] 0.167 | [8] 0.022 | [9] -0.035 | [10] 0.007

GEMIN2 (UniProt O14893)
inactive: [1] -0.019 | [2] 0.014 | [3] -0.03 | [4] 0.032 | [5] -0.033 | [6] 0.142 | [7] 0.059 | [8] 0.004 | [9] -0.039 | [10] 0.049

FXN (UniProt Q16595)
inactive: [1] 0.048 | [2] 0.053 | [3] -0.012 | [4] 0.079 | [5] 0.015 | [6] 0.043 | [7] 0.074 | [8] -0.008 | [9] -0.041 | [10] 0.033

FUNDC1 (UniProt Q8IVP5)
inactive: [1] -0.083 | [2] 0.101 | [3] 0.149 | [4] -0.156 | [5] -0.435 | [6] 0.05 | [7] -0.09 | [8] 0.149 | [9] -0.103 | [10] 0.017

GCN1 (UniProt Q92616)
inactive: [1] 0.015 | [2] -0.017 | [3] -0.071 | [4] 0.001 | [5] 0.066 | [6] -0.072 | [7] -0.01 | [8] 0.047 | [9] 0.001 | [10] -0.037

GALC (UniProt P54803)
inactive: [1] -0.019 | [2] -0.029 | [3] 0.077 | [4] 0.025 | [5] -0.053 | [6] -0.085 | [7] -0.067 | [8] 0.145 | [9] -0.055 | [10] -0.032

FRA10AC1 (UniProt Q70Z53)
inactive: [1] 0 | [2] -0.033 | [3] 0.005 | [4] -0.022 | [5] 0.023 | [6] 0.021 | [7] 0.035 | [8] -0.028 | [9] 0.028 | [10] -0.014

FTO (UniProt Q9C0B1)
inactive: [1] -0.017 | [2] -0.007 | [3] -0.003 | [4] 0.014 | [5] -0.025 | [6] -0.021 | [7] 0.021 | [8] -0.024 | [9] 0.002 | [10] 0

FUBP1 isoform 2 (UniProt Q96AE4)
inactive: [1] -0.015 | [2] 0 | [3] 0.01 | [4] 0.016 | [5] 0.004 | [6] 0.017 | [7] 0.004 | [8] -0.022 | [9] 0.002 | [10] 0.01

GEMIN4 (UniProt P57678)
inactive: [1] -0.001 | [2] -0.014 | [3] -0.047 | [4] -0.001 | [5] 0.101 | [6] -0.056 | [7] 0.006 | [8] 0.077 | [9] -0.001 | [10] -0.097

FUCA2 (UniProt Q9BTY2)
inactive: [1] 0.029 | [2] -0.024 | [3] 0.012 | [4] 0.007 | [5] 0 | [6] 0.026 | [7] 0 | [8] -0.016 | [9] 0.001 | [10] -0.004

GANAB isoform 2 (UniProt Q14697)
inactive: [1] 0.015 | [2] -0.008 | [3] 0.008 | [4] 0.005 | [5] -0.003 | [6] 0.053 | [7] -0.018 | [8] 0.001 | [9] 0.004 | [10] -0.004

GBA2 (UniProt Q9HCG7)
inactive: [1] -0.063 | [2] 0.114 | [3] 0.059 | [4] -0.079 | [5] 0.034 | [6] -0.101 | [7] -0.213 | [8] 0.023 | [9] 0.058 | [10] -0.074

FUT4 (UniProt P22083)
inactive: [1] -0.2 | [2] -0.117 | [3] 0.142 | [4] 0.068 | [5] -0.089 | [6] -0.065 | [7] 0.046 | [8] 0.157

GABARAP (UniProt O95166)
inactive: [1] -0.018 | [2] -0.003 | [3] -0.132 | [4] -0.034 | [5] 0.015 | [6] -0.043 | [7] -0.065 | [8] 0.023 | [9] 0.042 | [10] -0.036

Two consecutive records already listed:
GANAB isoform 2 (UniProt Q14697)
inactive: [1] 0.015 | [2] -0.008 | [3] 0.008 | [4] 0.005 | [5] -0.003 | [6] 0.053 | [7] -0.018 | [8] 0.001 | [9] 0.004 | [10] -0.004

GBA2 (UniProt Q9HCG7)
inactive: [1] -0.063 | [2] 0.114 | [3] 0.059 | [4] -0.079 | [5] 0.034 | [6] -0.101 | [7] -0.213 | [8] 0.023 | [9] 0.058 | [10] -0.074

Later entries:

FTH1 (UniProt P02794)
inactive: [1] 0.039 | [2] 0.077 | [3] -0.026 | [4] 0.038 | [5] 0.007 | [6] 0.042 | [7] -0.022 | [8] -0.01 | [9] 0.035 | [10] 0.042

GARS1 (UniProt P41250)
inactive: [1] 0.02 | [2] -0.039 | [3] 0.014 | [4] 0.008 | [5] 0.006 | [6] 0.035 | [7] -0.015 | [8] -0.026 | [9] 0.012 | [10] 0.022

GFM2 (UniProt Q969S9)
inactive: [1] -0.077 | [2] 0.055 | [3] -0.087 | [4] 0.085 | [5] 0.036 | [6] 0.112 | [7] 0.005 | [8] -0.033 | [9] 0.06 | [10] -0.116

FUNDC2 (UniProt Q9BWH2)
inactive: [1] 0.043 | [2] -0.026 | [3] -0.034 | [4] 0.039 | [5] 0.044 | [6] -0.067 | [7] 0.004 | [8] -0.024 | [9] 0 | [10] -0.023

GALNT6 (UniProt Q8NCL4)
inactive: [1] 0.049 | [2] -0.113 | [3] 0.089 | [4] 0.036 | [5] -0.152 | [6] 0.026 | [7] -0.112 | [8] -0.122 | [9] -0.094 | [10] -0.075

GEN1 (UniProt Q17RS7)
inactive: [1] -0.047 | [2] 0.23 | [3] 0.14 | [4] 0.004 | [5] -0.25 | [6] -0.222 | [7] -0.204 | [8] 0.044

GCC1 (UniProt Q96CN9)
inactive: [1] 0.008 | [2] 0.028 | [3] -0.049 | [4] 0.075 | [5] -0.034 | [6] -0.04 | [7] -0.012 | [8] 0 | [9] -0.036 | [10] 0.077

GATC (UniProt O43716)
inactive: [1] 0.053 | [2] -0.045 | [3] 0.043 | [4] 0.077 | [5] -0.02 | [6] 0.189 | [7] 0.115 | [8] -0.117 | [9] -0.049 | [10] 0.007

GDPD1 (UniProt Q8N9F7)
inactive: [1] -0.047 | [2] 0.011 | [3] 0.026 | [4] 0.011 | [5] -0.05 | [6] -0.056 | [7] 0.024 | [8] -0.02 | [9] 0.053 | [10] -0.017

FRG1 (UniProt Q14331)
inactive: [1] -0.166 | [2] 0.052 | [3] 0.056 | [4] -0.105 | [5] 0.017 | [6] 0.069 | [7] -0.001 | [8] 0.018 | [9] 0.012 | [10] -0.005

GCDH (UniProt Q92947)
inactive: [1] -0.018 | [2] -0.129 | [3] 0.024 | [4] -0.033 | [5] -0.022 | [6] -0.05 | [7] -0.018 | [8] -0.07 | [9] -0.021 | [10] -0.044

GABPB1 (UniProt Q06547)
inactive: [1] -0.008 | [2] 0.012 | [3] -0.051 | [4] -0.023 | [5] 0.05 | [6] -0.036 | [7] 0.007 | [8] 0.031 | [9] 0.05 | [10] 0.033
